Assay results from article PMC9663298.
Results are given in words; binding and its absence hold for the method and conditions named. Binding seen in cells or lysates may run through a third protein. Some entries that bind do so weakly or less than the wild type.

Protein sequences, listed by entry. Tags and fused reporters are not part of them.
UniProt P17844: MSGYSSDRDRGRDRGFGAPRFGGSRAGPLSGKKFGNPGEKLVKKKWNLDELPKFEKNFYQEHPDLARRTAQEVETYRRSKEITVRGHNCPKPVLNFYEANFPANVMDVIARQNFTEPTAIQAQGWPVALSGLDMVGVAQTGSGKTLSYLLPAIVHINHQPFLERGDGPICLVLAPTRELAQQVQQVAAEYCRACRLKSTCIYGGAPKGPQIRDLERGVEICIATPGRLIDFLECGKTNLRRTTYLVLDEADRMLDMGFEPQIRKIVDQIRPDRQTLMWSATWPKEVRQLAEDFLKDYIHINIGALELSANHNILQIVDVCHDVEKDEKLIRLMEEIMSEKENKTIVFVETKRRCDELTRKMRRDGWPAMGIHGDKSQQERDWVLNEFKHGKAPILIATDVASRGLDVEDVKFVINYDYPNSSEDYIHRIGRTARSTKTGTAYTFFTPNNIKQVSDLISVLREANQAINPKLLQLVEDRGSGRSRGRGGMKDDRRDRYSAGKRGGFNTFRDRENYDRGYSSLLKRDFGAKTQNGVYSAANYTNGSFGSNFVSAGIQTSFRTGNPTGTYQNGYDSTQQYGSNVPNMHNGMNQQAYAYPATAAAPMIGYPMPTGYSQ
UniProt Q07955: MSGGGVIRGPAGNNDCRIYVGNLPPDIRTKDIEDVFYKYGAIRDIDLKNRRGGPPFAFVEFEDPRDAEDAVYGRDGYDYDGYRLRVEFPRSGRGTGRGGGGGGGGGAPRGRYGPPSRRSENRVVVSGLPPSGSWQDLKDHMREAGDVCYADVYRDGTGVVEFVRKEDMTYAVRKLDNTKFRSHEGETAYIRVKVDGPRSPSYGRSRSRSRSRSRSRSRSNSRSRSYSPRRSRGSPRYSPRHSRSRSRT

What was measured:
HA-tagged DDX5 = HA-tagged DDX5 (UniProt P17844); experiment: co-IP; HEK293T or HeLa cells transfected with epitope-tagged DDX5 or SF2; lysis in 250 mM NaCl, 50 mM Hepes pH 7.4, 1 mM EDTA, 1% NP-40; anti-Flag or anti-HA beads, blot for Flag or HA
[1] = target: RNA helicase DDX5 (human (endogenous in NHEKs)) (UniProt P17844); experiment: co-IP; DDX5 antibody immunoprecipitate from total NHEK lysates, immunoblot with DDX5 and SF2 antibodies

| binding (HA-tagged DDX5) | binding [1] | Substance |
| --- | --- | --- |
| binds | – | Flag-tagged SF2 (from UniProt Q07955 1-248) |
| – | binds | splicing factor SF2 (also known as SRSF1) (from UniProt Q07955 1-248) |
